Assay results reported in the supplement of paper PMC10338343.
± gives the standard deviation. Some of the results follow. Many entries were measured with a wide error.

Tested on: EfPiwi piRISC loaded with L1MC piRNA (26 nt)
Experiment: pre-steady-state target cleavage rate (min^-1); guide: L1MC piRNA 5'p-UAACUAAAUACUAUGCAAGCUGUAGG; MIWI and MILI are mouse PIWI proteins and EfPiwi is from a freshwater sponge; tags in brackets are library labels; higher = faster piRNA-guided slicing of the target
In short: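 The pre-steady-state cleavage rate was derived from a burst-and-steady-state fit of Cleave-'n-Seq data. For these assays, 1 nM active affinity-purified piRISC loaded with a single synthetic guide was mixed with […] a transcribed, DNA-blocked target RNA library in HEPES–potassium acetate buffer at 33 °C, with or without 500 nM GTSF1 partner protein, for 0–8 or 0–960 min. Sequencing counts of uncleaved targets were normalised to depth and to weakly complementary targets, and k3 was capped at 0.0001 min^-1 after three trials were pooled.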

[1] = auxiliary factor: 500 nM Ephydatia muelleri Gtsf1
[2] = auxiliary factor: none (no Gtsf1)

Sequence	pre-steady-state target cleavage rate [1]	pre-steady-state target cleavage rate [2]
UCCUGGAACAGCUUGCAUACUAUUAAGUUA	0.00246 ± 0.0024	0.000933 ± 0.008
UCCUGGUACAGCUUGGAUAGAAUUUAGUUA	0.00116 ± 0.0069	0.000345 ± 0.03
UCCUGGAAGAGCUUGCAUUGUAUUUAGUUA	0.0104 ± 0.0029	0.00292 ± 0.004
UCCUGGUACAGCAAGCAUAGUAUUUAGUAA	0.00171 ± 0.0034	0.000481 ± 0.013
UCCUGGAUGUCGAAGCAUACUAAUUAGUUA	0.000539 ± 0.0082	< 0.0001
UCCUGGAUGUGUUGCAUAGUAUUUAGUUA	0.0026 ± 0.0033	0.00289 ± 0.0049
UCCUGGAUCAGCAUGGAUAGUAUUUAGUUA	0.00169 ± 0.0039	0.000214 ± 0.031
UCCUCCUACACCUAGCAUAGUAUUUAGUUA	0.00718 ± 0.0027	0.00055 ± 0.0091
UCCUGGAUGUGCUUCGCAUAGUAUUUAGUUA	0.0132 ± 0.0048	0.00142 ± 0.0067
UCCUGGAACAGCAUGGAUAGUAUUUAGUUA	0.00527 ± 0.0017	0.000523 ± 0.017
UCCUGCUACAGCUUGCUAGUAUUUAGUUA	0.00473 ± 0.0031	0.00163 ± 0.005
UCCUGCUACAGCUUGCAUAGUAUUUGGUUA	0.00556 ± 0.0012	0.000924 ± 0.0099
UCCUGCUACAGCUUGCAUAGUAUUUUAGUUA	0.00822 ± 0.0026	0.000505 ± 0.018
UCCUGGAUGAGCUUGCAUAGUAUUUUAGUUA	0.00631 ± 0.0035	0.00142 ± 0.0097
UCCUGGUACAGCUUGCAUAGUACUUUAGUUA	0.00549 ± 0.0027	0.00149 ± 0.0064
UCCUGGAUGUCGAAGCUUAGUAAUUAGUUA	0.000875 ± 0.0078	0.000171 ± 0.045
UCCUGGAUGUGCUUGCAAAGUAUUUUGUUA	0.000977 ± 0.0043	< 0.0001
UCCUGGAACAGCUACCAUAGUAUUUAGUUA	0.00309 ± 0.0026	0.000492 ± 0.018
UCCUGGAUGAGCUUGCAUAGUUAUUUAGUUA	0.000968 ± 0.0054	0.000679 ± 0.013
UCCUGGAACAGCAUGCAUAGUAUUUAGUAA	0.00384 ± 0.0023	0.000233 ± 0.032
UCCUCCUACAGCUUGCAUACUAUUUAGUUA	0.00904 ± 0.0032	0.00124 ± 0.0066
UCCUGCUACACCUUGCUUAGUAUUUAGUUA	0.00903 ± 0.0035	0.00103 ± 0.0089
UCCUGGUACAGCUUGCAUAGUGUUUAGUUA	0.00794 ± 0.0028	0.00325 ± 0.0051
UCCUGGAUCAGCUUGCAUACUAUUUUGUUA	0.00138 ± 0.0037	0.000238 ± 0.036
UCCUGGAUGUGGUUGCAUAGUAUUUACUUA	0.00186 ± 0.0056	0.000277 ± 0.049
UCCUGCUACAGCUUGCAUAGUUUUUUGUUA	0.00384 ± 0.0021	0.000761 ± 0.0096
UCCUGGAUGAGCUAGCAAAGUAUUUAGUUA	0.00186 ± 0.002	0.000402 ± 0.012

Whole records, quoted from the list:
UCCUGGAAGAGCUUGCAUUGUAUUUAGUUA in the list: pre-steady-state target cleavage rate [1] = 0.0104 ± 0.0029; pre-steady-state target cleavage rate [2] = 0.00292 ± 0.004
UCCUGGUACAGCUUGCAUAGUGUUUAGUUA in the list: pre-steady-state target cleavage rate [1] = 0.00794 ± 0.0028; pre-steady-state target cleavage rate [2] = 0.00325 ± 0.0051
UCCUGGUACAGCAAGCAUAGUAUUUAGUAA in the list: pre-steady-state target cleavage rate [1] = 0.00171 ± 0.0034; pre-steady-state target cleavage rate [2] = 0.000481 ± 0.013
UCCUCCUACACCUAGCAUAGUAUUUAGUUA in the list: pre-steady-state target cleavage rate [1] = 0.00718 ± 0.0027; pre-steady-state target cleavage rate [2] = 0.00055 ± 0.0091

Continued.

Sequence	pre-steady-state target cleavage rate [1]	pre-steady-state target cleavage rate [2]
UCCUGGAACGAGCUUGCAUAGUAUUUAGUUA	0.00926 ± 0.0022	0.000917 ± 0.0087
UCCUGGAUGUCGAACGUUAGUAUUUAGUUU [g2:g13:cont:t1U]	0.000157 ± 0.026	< 0.0001
UCCUCCUACAGCUUGCAUAGUCAUUUAGUUA	0.00268 ± 0.0025	0.000788 ± 0.0082
UCCUGGAACAGCUUGCAUAGUAUUUAGUAUA	0.00935 ± 0.005	0.000485 ± 0.021
UCCUGGAUGAGCUUGGAUAGUAUUUUGUUA	0.00108 ± 0.0062	0.000947 ± 0.0099
UCCUGGAACACCUUGCAUAGUAAUUAGUUA	0.00283 ± 0.0022	0.000846 ± 0.0099
UCCUGGAUGAGCAUGCAUAGUAUAUAGUUA	0.00333 ± 0.0032	0.000319 ± 0.03
UCCUGCUACAGCUUGCAUAGUAUUCUAGUUA	0.0043 ± 0.002	0.000619 ± 0.011
UCCUGCUAGAGGUUGCAUAGUAUUUAGUUA	0.00977 ± 0.0027	0.000765 ± 0.013
UCCUGCAUGAGCUUGCAUAGUAUUUAGUAA	0.0061 ± 0.0025	0.000271 ± 0.021
UCCUGCUACUGCUUGCAUAGUUUUUAGUUA	0.00399 ± 0.0017	0.000563 ± 0.011
UCCUGGAUGUGCUUGCAUAGUACUUUAGUUA	0.0126 ± 0.0061	0.001 ± 0.012
UCCUGGAACAGCUUGCAUAGUGUUUAGUUA	0.0084 ± 0.0024	0.000668 ± 0.011
UCCUGGAUGAGCUUGCAUAGUAUAAUGUUA	0.00166 ± 0.0029	0.000596 ± 0.016
UCCUGGAUCUGCAUGCAUAGUAUUUAGUUA	0.0798 ± 0.021	0.00086 ± 0.01
UCCUGGAUGAGCUUGCAAAGUAAUUAGUUA	0.00431 ± 0.0022	0.000437 ± 0.019
UCCUGGUUCACCUUGCAUAGUAUUUAGUUA	0.0052 ± 0.0033	0.00104 ± 0.01
UCCUGGAACAGCUUGCAUAGUAGUUUAGUUA	0.0047 ± 0.0024	0.000654 ± 0.016
UCCUGGAUGUGCUUGCAUACUAUUAAGUUA	0.00132 ± 0.0027	0.000478 ± 0.013
UCCUGGUACAGCUGUGCAUAGUAUUUAGUUA	0.00903 ± 0.0034	0.000187 ± 0.041
UCCUGGAUCAGCUUGCAUAGUAUUAUGUUA	0.005 ± 0.0024	0.00122 ± 0.0088
UCCUGGAUCAGCUUGCAUAGAUUUUAGUUA	0.00193 ± 0.0042	0.000486 ± 0.017
UCCUGGAUGUUCUUGCAUAGUAUUUAGUUA	0.173 ± 0.068	0.00123 ± 0.011
UCCUGGUACUGCUUGCAUAGUAUAUAGUUA	0.01 ± 0.0048	0.000257 ± 0.053
UCCUGGAUGAGCUAUGCAUAGUAUUUAGUUA	0.0256 ± 0.0076	0.00124 ± 0.0058
UCCUCCUACAGCUUGCAUUGUUUUUAGUUA	0.00277 ± 0.0025	0.000588 ± 0.0075
UCCUGGAUGUCCUUGCAUAGUAAUUUAGUUA	0.000281 ± 0.023	0.000276 ± 0.024
